The nature of this data set: general procedure: Fmoc solid-phase peptide synthesis; NovaSyn TGR; DIPCI/HOBt; double coupling with HBTU/HOBt/DIPEA. The conditions noted are these: whole synthesis, scale 0.20 mmol.

Drawing on patent publication US20140056935A1 (priority 2011, published 2014), this text covers isolated mass and isolated yield for one substance.

Some peptides are written in HELM: one residue between dots, names in brackets for other building blocks, links after the first $.

Take “PEPTIDE1{W.M.E.W.D.R.E.I.N.N.Y.T.S.L.I.H.S.L.I.E.E.S.Q.N.Q.Q.E.K.N.E.Q.E.L.L.R.E.R.E.R.E.G}$$$$V2.0”: the isolated mass is 5.3 mg and the isolated yield result is reported as “yield 1%”.
